# Measured values published in PubChem BioAssay AID2685 (National Center for Advancing Translational Sciences (NCATS), 2010).
# This is one part of the list. These are further read-outs of the screen, such as a control signal, another cell line or another target. No call is given for them. The list favours compounds with an active or inconclusive main result. Potencies come from curve fits of mixed quality, noted in brackets.
# Assay: qHTS Assay for Lipid Storage Modulators in Drosophila S3 Cells;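 on cell number change: cells counted by Cell Tracker Red CMTPX staining in the red channel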
# Details: BODIPY lipid droplet fluorescence, 18-24 h; for cell number change: measured here: cell count max response, cells fed with added oleic acid
# Method in brief: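 Drosophila S3 cells got compounds at several concentrations plus oleic acid (400 uM solution). Laser-scanning cytometry with 488 nm excitation read lipid droplets at 500-530 nm and cells at 575-640 nm. Percent activity was relative to 20 uM Triacsin C.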
# [1] = measured here: cell number channel AC50, cells fed with added oleic acid
# [2] = measured here: lipid fluorescence (Fed channel) AC50, cells fed with added oleic acid
SMILES,cell number change,AC50 [1],AC50 [2]
CC(C)Oc1ccccc1/C=N/NC(=O)C1CCCC1,38.8%,,
O=[N+]([O-])c1ccc(C[n+]2cc(-c3ccc(Cl)c(Cl)c3)n3c2CCCCC3)cc1,29.9%,,
CCn1c(SCC(=O)c2[nH]c(C)c(C(C)=O)c2C)nnc1-c1ccncc1,39.3%,"7.31 µM [rising, partial curve, poor fit]","20.6 µM [rising, partial curve]"
O=[N+]([O-])c1ccc2c(c1N1CCCCC1)=NC1(CCCCC1)[N+]=2[O-],7.58%,"0.82 µM [falling, single point]","0.731 µM [falling, single point]"
COc1ccc(-c2nn(-c3ccccc3)cc2C#N)cc1,,"6.51 µM [rising, single point]","6.51 µM [rising, partial curve]"
CN(CCCN1CCOCC1)C(=O)c1cc(COc2ccc(F)cc2F)on1,,,"5.17 µM [falling, single point]"
CCOC(=O)C1=C(N)Oc2ccc3ccccc3c2C1c1cccc(O)c1 (centres undefined),-48.7%,"18.4 µM [falling, single point]","23.1 µM [falling, single point]"
Cn1c(N)c(C(=O)COC(=O)C2CCCCC2)c(=O)n(C)c1=O,0.831%,,"6.51 µM [falling, single point]"
O=C(CNC(=O)c1ccco1)NCC(=O)OCc1ccc(F)cc1,-2.63%,,
COc1cccc(NC(=O)c2ccc(C(=O)c3ccccc3)o2)c1,2.26%,"0.731 µM [falling, full curve]","0.58 µM [falling, full curve]"
CCC(C)C(NC(=O)C1CCC(C)CC1)C(=O)NC(CCSC)C(=O)OC (centres undefined),-37.8%,"0.731 µM [falling, full curve]","29.1 µM [falling, single point]"
CCCCN(C(=O)c1ccc2c(c1)S(=O)(=O)N=C1CCCCCN12)c1c(N)n(CCCC)c(=O)[nH]c1=O,-1.21%,,"18.4 µM [rising, partial curve]"
CN1C(=O)C(CC(=O)NCC2CCCCC2)SC1=Nc1ccccc1 (centres undefined),-13.3%,,"32.6 µM [falling, single point]"
COc1ccc(C2CC(c3ccc(OC)cc3)n3nc(NC(=O)c4cccs4)nc3N2)cc1 (centres undefined),0.996%,"6.51 µM [rising, single point]","6.51 µM [rising, partial curve]"
O=C(NCCCSc1ccccc1)c1cc(Br)ccc1O,22.2%,,
Cc1[nH]c(=O)[nH]c1CN1CCCCC1,8.78%,,"0.13 µM [rising, full curve, poor fit]"
CCCn1nnnc1-c1ccc(Cl)cc1,6.64%,,"3.66 µM [rising, full curve, poor fit]"
C=CCOc1ccc(/C=C2/C(=O)ON=C2C)cc1OCC,34%,"9.2 µM [rising, partial curve, poor fit]",
CCC1CCCCN1C(=O)COC(=O)c1cc(Br)ccc1Cl (centres undefined),24.9%,,"29.1 µM [rising, single point]"
COc1ccc(CCC(=O)NCC2CCCCC2)cc1OC,22.3%,"0.00517 µM [rising, full curve, poor fit]",
CN(Cc1ccccc1)C(=O)Cn1cccc1C(=O)c1ccccc1,-40.1%,"3.26 µM [falling, partial curve]","1.84 µM [falling, full curve]"

# Some of these compounds in order of number of heavy atoms, rising:
SMILES,cell number change,AC50 [1],AC50 [2]
O=C(NCCCSc1ccccc1)c1cc(Br)ccc1O,22.2%,,
Cn1c(N)c(C(=O)COC(=O)C2CCCCC2)c(=O)n(C)c1=O,0.831%,,"6.51 µM [falling, single point]"
O=[N+]([O-])c1ccc2c(c1N1CCCCC1)=NC1(CCCCC1)[N+]=2[O-],7.58%,"0.82 µM [falling, single point]","0.731 µM [falling, single point]"
CN(Cc1ccccc1)C(=O)Cn1cccc1C(=O)c1ccccc1,-40.1%,"3.26 µM [falling, partial curve]","1.84 µM [falling, full curve]"
CCCCN(C(=O)c1ccc2c(c1)S(=O)(=O)N=C1CCCCCN12)c1c(N)n(CCCC)c(=O)[nH]c1=O,-1.21%,,"18.4 µM [rising, partial curve]"

# Next structures:

SMILES,cell number change,AC50 [1],AC50 [2]
O=C(CSc1nc(-c2cccs2)cc(C(F)(F)F)n1)NCc1ccccc1,21.7%,"0.0184 µM [rising, full curve, poor fit]","2.91 µM [rising, partial curve, poor fit]"
Cc1ccccc1OCc1nc2ccccc2c(=O)n1/N=C/c1c[nH]c2ccccc12,2.48%,,"0.92 µM [rising, full curve]"
CC(C)c1onc(C(=O)N2CCCCC2)c1[N+](=O)[O-],,,"9.2 µM [falling, partial curve, poor fit]"
O=C(c1n[nH]c(=O)c2ccccc12)N1CCN(c2ccccc2Cl)CC1,-12%,,"9.2 µM [rising, partial curve, poor fit]"
O=C(NCCN1C(=O)S/C(=C\c2ccc(OC(F)F)cc2)C1=O)C1=COCCO1,,"2.91 µM [rising, partial curve]",
O=C1CCCC/C1=C/Nc1cccc(C(F)(F)F)c1,-32.7%,"0.58 µM [falling, full curve]","0.651 µM [falling, full curve]"
CNC(=O)NC(=O)CSc1nnc(-c2ccco2)n1-c1ccccc1,-2.81%,,
O=S(=O)(c1ccc(N2CCCC2)nc1)N1CCCC1,,,"6.51 µM [rising, partial curve, poor fit]"
Cc1cc(C)cc(NC(=O)CN2C(=O)COc3ccc(S(=O)(=O)N4CCCC4)cc32)c1,-19.1%,,
O=C(NCc1ccc(F)cc1)C1CCCN(S(=O)(=O)c2ccc(-n3cnnn3)cc2)C1 (centres undefined),23.9%,,
Cc1ccccc1OCC(=O)NCCNC(=O)c1cccnc1,-6.67%,,
O=C1C2C3C=CC(C3=C3CCCCC3)C2C(=O)N1Cc1ccccc1 (centres undefined),,"0.13 µM [falling, full curve, poor fit]","0.651 µM [falling, single point]"
O=C(Cn1nc(C(=O)O)c2ccccc2c1=O)Nc1ccc2c(c1)OCO2,-0.374%,,
CC(C)Nc1nc(Oc2ccc(=O)n(-c3ccccc3)n2)nc(N(C)C)n1,-3.04%,,
COc1ccc(Cl)cc1S(=O)(=O)N1CCCC(C(=O)N2CCCC2)C1 (centres undefined),-3.18%,,
CC1CCCCN1C(=O)CSc1nnc(-c2ccco2)o1 (centres undefined),13.8%,,"11.6 µM [rising, single point]"
COc1ccc(S(=O)(=O)N2CCCCC2)cc1C(=O)Nc1cc(C)on1,-16.2%,,"8.2 µM [falling, partial curve]"
Cc1nn(Cc2ccccc2Cl)c2sc(C(=O)OC3CCCC3=O)cc12 (centres undefined),98.6%,"16.4 µM [rising, partial curve]","6.51 µM [rising, single point]"
O=C(O/N=C(/c1ccccc1)c1ccncc1)c1cccc(F)c1,17.4%,,"2.06 µM [rising, single point]"
CCN(C(=O)CSc1nnc(-c2ccco2)n1C)c1c(N)n(Cc2ccccc2)c(=O)[nH]c1=O,-15.9%,,"0.146 µM [falling, full curve]"
COc1cc2cc(CN(Cc3nnnn3C3CCCC3)C3CCCC3)c(=O)[nH]c2cc1OC,41.1%,"23.1 µM [rising, single point]",

SMILES,cell number change,AC50 [1],AC50 [2]
CC1CCN(S(=O)(=O)c2cccc(C(=O)NC3CCCC3)c2)CC1,-14.9%,"0.103 µM [rising, full curve, poor fit]",
[O-]/[N+](=C\c1ccc(F)cc1)c1ccccc1,2.38%,,"0.0058 µM [falling, full curve, poor fit]"
CCC1(CC)NC(=O)N(CC(=O)OCC(=O)Nc2ccc(C(F)(F)F)cc2)C1=O,1.16%,,"4.61 µM [falling, partial curve]"
O=C1CCC(=O)N1c1ccc(CSc2nnnn2C2CCCCC2)cc1,-6.39%,,
Cc1ccc(C(=O)CCC(=O)N2CCC(C(N)=O)CC2)cc1,-10.7%,"6.51 µM [falling, partial curve, poor fit]",
O=C(Nc1ccnn1C1CCN(C/C=C/c2ccccc2)CC1)C1CCCC1,7.41%,,"0.00517 µM [falling, full curve, poor fit]"
N#CCSc1nc2c(c(=O)n1Cc1ccccc1)C1(CCCC1)Cc1ccccc1-2,38.6%,"0.411 µM [rising, full curve, poor fit]","2.59 µM [rising, partial curve]"
Cc1cc2occ(CC(=O)N(C)CC(=O)Nc3ccc(F)cc3)c2cc1C,42%,"7.31 µM [rising, partial curve]",
COc1ccc(OC)c(NC(=O)CCN2CCN(c3ccccc3F)CC2)c1,-1.52%,,
C=CCOc1cccc(C2C(C(=O)c3ccco3)=C(O)C(=O)N2Cc2ccncc2)c1 (centres undefined),16.7%,,"16.4 µM [rising, single point]"
Cc1ccc(C(=O)N2CCCC2)cc1S(=O)(=O)N1CCCCC1,20.5%,,"5.8 µM [rising, single point]"
CC(C)c1ccc2nc(NC(=O)C3CC3)sc2c1,-26.5%,,"0.82 µM [rising, single point]"
CS(=O)(=O)N(CC(=O)Nc1ccccc1C(=O)N1CCOCC1)c1ccc(Cl)cc1,1.52%,,"6.51 µM [falling, single point]"
O=C(COc1ccc(Cl)cc1)NN=C1CCCCCCC1,,,"1.41 µM [rising, partial curve, poor fit]"
CC(C)OC(=O)c1cc(NC(=S)Nc2ccc([N+](=O)[O-])cc2)cc(C(=O)OC(C)C)c1,-29.1%,,"20.6 µM [falling, single point]"
Cn1c(=O)c2c(nc(SCC(=O)NCc3ccco3)n2C)n(C)c1=O,20.6%,,"29.1 µM [falling, single point]"
O=C(Oc1ccc(-c2nnco2)cc1)c1ccc(Br)o1,22.6%,,
O=C(COC(=O)CCc1nc2ccccc2c(=O)[nH]1)Nc1ccccc1OC(F)F,-41.6%,"20.6 µM [falling, single point]","18.4 µM [falling, partial curve]"
Cc1nn2c(NCCCn3ccnc3)cc(C(C)C)nc2c1-c1ccccc1,-20%,,
